Measurements reported in article PMC6662706 (Scientific Reports, 2019).
End groups of sequences in plain letters are not given here. HELM strings list residues between dots; [ac] is acetyl, [am] amide, other brackets name non-standard units.

Assay: general procedure: Fmoc solid-phase peptide synthesis; Rink Amide MBHA resin (0.4 mmol/g); HCTU/NMM
Conditions: whole synthesis, analytical C18 RP-HPLC (Vydac), scale of the general procedure 0.1 mmol

Row | Substance | final HPLC purity [%]
1 | PEPTIDE1{L.G.R.L.S.Q.E.L.H.R.L.Q.T.Y.[am]}$$$$V2.0 | 98
2 | LQTYPRTNTGSN | 95
3 | PEPTIDE1{S.Q.E.L.H.R.L.Q.T.Y.P.R.[am]}$$$$V2.0 | 96
